The target in one assay is ELF1 (UniProt P32519). As to the kind of experiment: DAPPL (digital affinity profiling via proximity ligation, sequencing). Particulars: 10 mM Tris-HCl pH 7.5, 50 mM NaCl, 1 mM DTT, 4% glycerol, room temperature, 30 min; GST-TFs on glutathione beads, 16-mer random dsDNA library, 0.1% …; high values mean tight binding; double strand, one strand shown; scale: fold enrichment (6-mer frequency, TF over GST control).

Sequences of proteins named here, by UniProt entry; tags and fusion partners are left off. A change or cut given only in a name is not applied to a line headed by its entry.
UniProt P32519: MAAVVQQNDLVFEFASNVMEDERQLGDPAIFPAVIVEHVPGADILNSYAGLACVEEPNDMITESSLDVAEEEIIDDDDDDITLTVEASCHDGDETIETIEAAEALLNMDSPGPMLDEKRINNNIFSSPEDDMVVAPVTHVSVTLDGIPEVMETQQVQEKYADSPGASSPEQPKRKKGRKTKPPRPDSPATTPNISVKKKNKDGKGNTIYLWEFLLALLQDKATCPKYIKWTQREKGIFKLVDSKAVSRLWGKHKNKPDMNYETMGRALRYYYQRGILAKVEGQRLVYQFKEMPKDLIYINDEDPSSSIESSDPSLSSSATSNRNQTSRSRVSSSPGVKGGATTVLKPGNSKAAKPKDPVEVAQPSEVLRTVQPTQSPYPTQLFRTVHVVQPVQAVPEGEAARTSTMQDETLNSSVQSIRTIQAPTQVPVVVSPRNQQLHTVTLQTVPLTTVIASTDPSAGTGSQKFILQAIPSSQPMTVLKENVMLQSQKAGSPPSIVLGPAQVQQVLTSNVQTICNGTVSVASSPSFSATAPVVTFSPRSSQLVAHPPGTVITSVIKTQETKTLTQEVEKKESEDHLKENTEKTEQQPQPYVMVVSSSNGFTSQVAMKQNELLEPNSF

For the next assay, the target named is T1, ETV4 (UniProt P43268).
T1 sequence: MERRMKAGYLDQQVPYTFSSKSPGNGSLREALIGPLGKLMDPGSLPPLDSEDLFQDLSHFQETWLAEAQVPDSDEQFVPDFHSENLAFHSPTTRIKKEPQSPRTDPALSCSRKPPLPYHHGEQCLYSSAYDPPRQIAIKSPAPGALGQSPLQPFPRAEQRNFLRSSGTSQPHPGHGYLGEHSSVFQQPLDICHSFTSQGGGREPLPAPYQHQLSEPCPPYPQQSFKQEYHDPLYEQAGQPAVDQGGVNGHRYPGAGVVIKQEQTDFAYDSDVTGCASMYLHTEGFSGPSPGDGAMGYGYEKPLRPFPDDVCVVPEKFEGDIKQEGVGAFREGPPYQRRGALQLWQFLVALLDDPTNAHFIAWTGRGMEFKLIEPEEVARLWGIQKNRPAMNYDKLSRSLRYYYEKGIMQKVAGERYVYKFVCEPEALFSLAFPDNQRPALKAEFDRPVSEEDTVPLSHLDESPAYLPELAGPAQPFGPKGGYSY
Described as above. Particulars: 10 mM Tris-HCl pH 7.5, 50 mM NaCl, 1 mM DTT, 4% glycerol, room temperature, 30 min; GST-TFs on glutathione beads, 16-mer random dsDNA library, 0.1% …; high values mean tight binding; double strand, one strand shown; scale: fold enrichment (6-mer frequency, TF over GST control).

The entries are a selection whose mix differs from that of the whole data set. For some of these results: At the low end of the ranking the order means little. This is one part of the list. For some of these results: Construct or isoform of the protein are uncertain.

For the sequence CGATTC, the binding signal came out at 1.24 with ELF1 and 1.14 with ETV4.
Taken in the same sequence, the figures for TGCTAT were 1.46 and 1.4.
Taken in the same sequence, the figures for AAGCAG were 1.12 and 0.981.
On the same counts, the results for TCCTTT are 1.81 and 1.66.
For TCAATA, the binding signal with ELF1 was 1.17; with ETV4, 1.16.
Taken in the same sequence, the figures for TAGCGG were 0.966 and 1.02.
On the same counts, the results for AAGGTA are 1.13 and 1.1.
For the sequence GCCAAT, the values for the binding signal in the assay with ELF1 and with ETV4 were 1.04 and 1.09, respectively.
On the same counts, the results for CGCCTC are 1.49 and 1.45.
Taken in the same sequence, the figures for GTTCCG were 1.78 and 1.87.
Taken in the same sequence, the figures for CTGCAA were 1.36 and 1.39.
With CTTGTT, the results for the binding signal with ELF1 and in the assay with ETV4 were 1.21 and 1.27, respectively.
In the case of TTGCAC, the binding signal in the assay with ELF1 was 1.28; in the assay with ETV4 it was 1.33.
On the same counts, the results for ATTATT are 1.13 and 1.18.
For ACCGTC, the results for the binding signal with ELF1 and in the assay with ETV4 were 1.19 and 1.2, respectively.
On the same counts, the results for TTACAA are 1.15 and 1.13.
On the same counts, the results for TCTCAC are 1.39 and 1.37.
On the same counts, the results for ACTCTT are 1.25 and 1.28.
As to CTCTTT, the binding signal with ELF1 is 1.53; with ETV4, 1.55.
Taken in the same sequence, the figures for GGAAGC were 1.39 and 1.68.
On the same counts, the results for CCTGTT are 1.75 and 1.68.
With TCGCCT, the binding signal with ELF1 turned out to be 1.21; with ETV4, 1.39.
Taken in the same sequence, the figures for AGAAGC were 1.08 and 1.17.
Taken in the same sequence, the figures for ATGGTA were 1.36 and 1.29.
Regarding CTAATC, the binding signal in the assay with ELF1 came out at 1.32; with ETV4 it was 1.38.
Taken in the same sequence, the figures for CGGCTC were 1.27 and 1.27.
